PubChem BioAssay AID504744, Drosophila RNAi Screening Center, 2011

- Screen: 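Uncover factors, including feedback loops, that control dAkt activation in fly cells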 (primary screen)
- Cells: Drosophila Kc167 cells
- Knock-down reagent: long dsRNA against Drosophila genes, 250 ng dsRNA per well of a 384-well plate
- Timing: 3 days of knock-down, then overnight serum-free starvation before stimulation
- Treatment: bovine insulin at 387 nM for 10 minutes after 12 h without serum
- Detection: 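Per-well phospho-dAkt level from an in-cell fluorescent antibody stain, divided by a DNA-dye signal; log2 residuals turned into z-scores that take cell number into account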
- Call rule: 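Under insulin, a gene counts as a hit if the average z-score of two replicates lies above 2.5 or below -2.5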
The screen tested about 23,000 reagents; this is a random part of those with a known target gene and a result. Of all reagents, 98 (0.43%) were called active. 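Only hit calls are given; the phospho-dAkt signals, z-scores and hit direction were not deposited.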 Names joined by + are all predicted targets of the reagent.

Wdr81 (GeneID 34616) [DRSC02985] → Outcome = inactive
CG13088 (GeneID 34180) [DRSC02192] → Outcome = inactive
Est-P (GeneID 39393) [DRSC11163] → Outcome = inactive
AstC-R2 (GeneID 40019) [DRSC10051] → Outcome = inactive
APC10 (GeneID 36975) [DRSC06071] → Outcome = inactive
Uhg2 + snoRNA:Me18S-G1620 + snoRNA:U14:30Ea [DRSC01100] → Outcome = inactive
Torsin (GeneID 31399) [DRSC18570] → Outcome = inactive
CG34324 (GeneID 32302) [DRSC19502] → Outcome = inactive
hd (GeneID 40642) [DRSC12316] → Outcome = inactive
CG10920 (GeneID 31688) [DRSC17765] → Outcome = inactive
CG13901 (GeneID 38095) [DRSC08371] → Outcome = inactive
CG8372 (GeneID 34121) [DRSC03086] → Outcome = inactive
CG42843 (retired record) (GeneID 10178904) [DRSC01118] → Outcome = inactive
CG42843 (retired record) (GeneID 10178904) [DRSC02231] → Outcome = inactive
CG42843 (retired record) (GeneID 10178904) [DRSC02233] → Outcome = inactive
CG14297 (GeneID 42260) [DRSC14776] → Outcome = inactive
ox (GeneID 45401) [DRSC07520] → Outcome = inactive
Slob (retired record) (GeneID 34039) [DRSC03436] → Outcome = inactive
Prp16 (GeneID 32373) [DRSC19538] → Outcome = inactive
Prp16 (GeneID 32373) [DRSC19542] → Outcome = inactive
CG4896 (GeneID 33305) [DRSC00671] → Outcome = inactive
CG7341 (GeneID 40004) [DRSC10818] → Outcome = inactive
Cand1 (GeneID 34403) [DRSC01992] → Outcome = inactive

Single entries from the list.
Under “Outcome”, Prp16 (GeneID 32373) [DRSC19542] is entered as inactive
Entry for Uhg2 + snoRNA:Me18S-G1620 + snoRNA:U14:30Ea [DRSC01100] in “Outcome”: inactive
